{
  "source": "patent US20220251562",
  "key": {"[1]": {"tested_on": "CD3 epsilon/delta heterodimer (Homo sapiens)", "assay": "SPR", "settings": "2'-F pyrimidines; kinetic, DPBS; purified recombinant protein; protein details: C-terminal human IgG1 Fc fusion, AcroBiosystems; label: 5'-biotin-TEG"}, "[2]": {"tested_on": "CD3 epsilon/delta heterodimer (Mus musculus)", "assay": "SPR", "settings": "2'-F pyrimidines; kinetic, DPBS; purified recombinant protein; protein details: Sino Biological; label: 5'-biotin-TEG"}, "[3]": {"tested_on": "CD3 epsilon/gamma heterodimer (Homo sapiens)", "assay": "SPR", "settings": "2'-F pyrimidines; kinetic, DPBS; printed ARACD3-370006; purified recombinant protein; protein details: C-terminal human IgG1 Fc fusion, AcroBiosystems; label: 5'-biotin-TEG"}, "[4]": {"tested_on": "IgG1 Fc (counter target) (Homo sapiens)", "assay": "SPR", "settings": "2'-F pyrimidines; NA, DPBS; purified recombinant protein; protein details: AcroBiosystems; label: 5'-biotin-TEG"}, "[5]": {"tested_on": "CD3 complex on EL4 cells (Mus musculus)", "assay": "flow cytometry", "settings": "2'-F pyrimidines; dose-dependent staining 3-300 nM, DPBS; protein on the cell surface; protein details: EL4 ATCC CRL-2638; label: 5'-biotin-TEG"}, "[6]": {"tested_on": "CD3 complex on Jurkat cells (Homo sapiens)", "assay": "flow cytometry", "settings": "2'-F pyrimidines; protein on the cell surface; protein details: Jurkat ATCC TIB-152; label: 5'-biotin-TEG"}},
  "note": "pKd: −log10 of the molar value. The exact form of at least one protein or probe is not confirmed. For part of these data: A negative result means that nothing was seen under these conditions. For part of these data: At least one result comes from cells or an extract, where the contact may be indirect.",
  "data": [
    {"sequence": "UAUAGACUUUAAUGUCUCAUUUUCGCAGCGAUUCUUGUUUAUUUAACAUA [ARACD3-3700006]", "values": [
      {"measurement": "pKd", "setting": "[1]", "result": 7.12},
      {"measurement": "pKd", "setting": "[2]", "result": 7.62},
      {"measurement": "pKd", "setting": "[3]", "result": 7.68},
      {"measurement": "binding result", "setting": "[4]", "result": "no binding"},
      {"measurement": "binding result", "setting": "[5]", "result": "binds"},
      {"measurement": "binding result", "setting": "[6]", "result": "binds"}
    ]}
  ]
}
